The record followed here is US4137236A, “Amino-spiro[oxa(or thia)cycloalkane-penam]-carboxylic” (U C B, Societe Anonyme, priority 1977, dated 1979).

The data set has as its system beta-lactamase TEM. As to the kind of experiment: Rate of hydrolysis by beta-lactamase measured as NaOH consumed per minute. The data set is classed as biochemical. An excerpt: This method allows the dosage of the penicilloic acid resulting from the hydrolysis of the beta-lactam function by the lytic enzyme. The results of these kinetics, as given in the following Table, clearly show the superiority of compounds E and H as compared with pencillin G.

Take `O=C(Cc1ccccc1)N[C@@H]1C(=O)N2[C@@H]1SC1(CCSCC1)[C@@H]2C(=O)O` (relative stereo) [Compound E, 6-(2"-phenylacetamido)-2',3',5',6'-tetrahydro-spiro[penam-2,4'-[4H]thiopyran]-3-carboxylic acid]: the “Resistance to beta-lactamase TEM as compared with penicillin G (in words)” value is on record as “very pronounced increase in resistance”.
As for `O=C(Cc1ccccc1)NC1C(=O)N2C1SC1(CC[S+]([O-])CC1)C2C(=O)O` (centres unmarked) [Compound H, 6-(2"-phenylacetamido)-2',3',5',6'-tetrahydro-spiro[penam-2,4'-[4H]thiopyran]-3-carboxylic acid 1'-oxide], the “Resistance to beta-lactamase TEM as compared with penicillin G (in words)” value is “very pronounced increase in resistance”.
